The source of these data is paper doi:10.1101/798371 (bioRxiv, 2019).

Sequences of proteins named here, by UniProt entry; tags and fusion partners are left off.
UniProt P35180, whole entry: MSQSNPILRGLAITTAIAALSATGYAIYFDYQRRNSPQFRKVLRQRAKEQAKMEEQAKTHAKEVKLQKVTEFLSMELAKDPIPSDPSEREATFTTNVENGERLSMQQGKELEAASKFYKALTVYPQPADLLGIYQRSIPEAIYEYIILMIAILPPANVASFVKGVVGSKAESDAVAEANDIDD

Results are given in words; binding and its absence hold for the method and conditions named.

This experiment concerns the target T1, core TOM complex (monomeric unit: Tom40, Tom22, Tom5, Tom6, Tom7) (S. cerevisiae) (UniProt P23644+P49334+P80967+P33448+P53507).
T1 sequence 1: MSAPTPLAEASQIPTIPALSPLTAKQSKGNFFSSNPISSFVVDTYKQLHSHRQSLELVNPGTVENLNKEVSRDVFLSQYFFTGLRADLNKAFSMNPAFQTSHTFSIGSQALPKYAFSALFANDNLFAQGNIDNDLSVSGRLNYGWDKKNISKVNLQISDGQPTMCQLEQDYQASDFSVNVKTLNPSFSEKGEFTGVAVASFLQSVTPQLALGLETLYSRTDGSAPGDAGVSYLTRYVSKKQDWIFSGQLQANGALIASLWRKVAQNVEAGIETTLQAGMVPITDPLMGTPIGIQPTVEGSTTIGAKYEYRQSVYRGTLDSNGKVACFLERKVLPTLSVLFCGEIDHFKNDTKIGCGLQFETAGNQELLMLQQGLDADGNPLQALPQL
T1 sequence 2: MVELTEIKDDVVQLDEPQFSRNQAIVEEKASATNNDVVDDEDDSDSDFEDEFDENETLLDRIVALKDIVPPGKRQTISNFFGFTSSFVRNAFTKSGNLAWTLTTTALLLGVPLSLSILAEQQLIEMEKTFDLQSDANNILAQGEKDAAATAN
T1 sequence 3: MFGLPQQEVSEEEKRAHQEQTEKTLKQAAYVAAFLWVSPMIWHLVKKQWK
T1 sequence 4: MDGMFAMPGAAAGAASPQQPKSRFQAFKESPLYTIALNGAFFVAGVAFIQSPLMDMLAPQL
T1 sequence 5: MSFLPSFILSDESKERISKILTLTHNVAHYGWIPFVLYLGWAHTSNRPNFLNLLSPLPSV
Put plainly: tandem affinity purification.

As to Tom20 (from UniProt P35180 1-183), the binding entry is given as “no binding”.
